# Test results: PubChem BioAssay AID493014 (National Center for Advancing Translational Sciences (NCATS), 2011)
# The other results are listed elsewhere or left out. The main result of the screen is listed elsewhere. These columns were measured beside it and carry no call. The list favours compounds with an active or inconclusive main result. Words in brackets tell the shape of the fitted curve; partial curves, single points and poor fits give uncertain potencies.
# Assay: qHTS Assay to Find Inhibitors of Chronic Active B-Cell Receptor Signaling
# Conditions: ABC-DLBCL IkBa-CBG/CBR reporter, luminescence ratio (green luciferase fused to IkBa over red control in TMD8 lymphoma cells), 4 h
# Outline: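 Cell line TMD8 (human ABC DLBCL), stably expressing tet-inducible CBG68-IkBa fusion and CBR; IMDM/0.5% FBS; cpd up to 46 uM; dox induction, 4 h, 37C/5% CO2; dual luminescence; green/red ratio; MG132 control.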
# [1] = measured here: CBR red luminescence, cell number
# [2] = measured here: IkBa-CBG green luminescence
smiles,measurement,setting,value
COc1ccc(NC(=O)c2ccccc2O)c(OC)c1,AC50,[1],"3.66 µM [falling, full curve]"
CC(C)Nc1nc(Oc2ccc(=O)n(-c3ccccc3)n2)nc(N(C)C)n1,AC50,[1],"0.794 µM [rising, full curve, poor fit]"
O=C1CCCC/C1=C/Nc1cccc(C(F)(F)F)c1,AC50,[1],"17.8 µM [rising, partial curve, poor fit]"
C=CCNC(=O)C(C#N)c1nc2ccccc2nc1N1CCCCCC1 (stereo not given),AC50,[1],"15.8 µM [falling, partial curve]"
Cc1nc(-c2cccs2)sc1C(=O)O,AC50,[1],"20 µM [falling, single point]"
Cc1ccccc1OCc1nc2ccccc2c(=O)n1/N=C/c1c[nH]c2ccccc12,AC50,[1],"29.1 µM [falling, single point]"
CC(C)c1onc(C(=O)N2CCCCC2)c1[N+](=O)[O-],AC50,[1],"32.6 µM [rising, partial curve, poor fit]"
CCOC(=O)c1sc(NC(=O)CSC(=S)N2CCOCC2)nc1C,AC50,[1],"5.01 µM [falling, partial curve, poor fit]"
O=C(NCCN1C(=O)S/C(=C\c2ccc(OC(F)F)cc2)C1=O)C1=COCCO1,AC50,[1],"16.4 µM [falling, partial curve, poor fit]"
Cc1cc(=O)n(C)c(=O)n1CCCCCN1CCCC1,AC50,[1],"3.66 µM [falling, full curve, poor fit]"
O=C(NCc1ccco1)C1CC2CCC1C2 (stereo not given),AC50,[1],"0.517 µM [rising, full curve, poor fit]"
CCOC(=O)C1=C(N)Oc2ccc3ccccc3c2C1c1cccc(O)c1 (stereo not given),AC50,[1],"22.4 µM [falling, single point]"
same,AC50,[2],"35.5 µM [rising, partial curve, poor fit]"
COc1ccc(CNC(=O)COc2ccc(C(=O)c3ccc(F)cc3)cc2)cc1,AC50,[1],"5.17 µM [rising, full curve, poor fit]"
same,AC50,[2],"3.66 µM [falling, full curve, poor fit]"
O=C(CNC(=O)c1ccco1)NCC(=O)OCc1ccc(F)cc1,AC50,[1],"12.6 µM [rising, partial curve, poor fit]"
COc1cccc(NC(=O)c2ccc(C(=O)c3ccccc3)o2)c1,AC50,[1],"35.5 µM [falling, single point]"
O=C(NCCCSc1ccccc1)c1cc(Br)ccc1O,AC50,[1],"0.708 µM [falling, full curve, poor fit]"
Cc1[nH]c(=O)[nH]c1CN1CCCCC1,AC50,[1],"25.1 µM [rising, partial curve, poor fit]"
CCC1CCCCN1C(=O)COC(=O)c1cc(Br)ccc1Cl (stereo not given),AC50,[1],"14.1 µM [rising, partial curve, poor fit]"

# Quoted at random: 2 records from the list, in no set order.
smiles,measurement,setting,value
Cc1nc(-c2cccs2)sc1C(=O)O,AC50,[1],"20 µM [falling, single point]"
COc1ccc(CNC(=O)COc2ccc(C(=O)c3ccc(F)cc3)cc2)cc1,AC50,[2],"3.66 µM [falling, full curve, poor fit]"
